Experimental findings from paper PMC7819943, “Rice protein-binding microarrays: a tool to detect cis-acting elements near promoter regions in rice” are described below.

Protein sequences, listed by entry. Tags and fused reporters are not part of them.
UniProt Q0JBA9, entry or part of it: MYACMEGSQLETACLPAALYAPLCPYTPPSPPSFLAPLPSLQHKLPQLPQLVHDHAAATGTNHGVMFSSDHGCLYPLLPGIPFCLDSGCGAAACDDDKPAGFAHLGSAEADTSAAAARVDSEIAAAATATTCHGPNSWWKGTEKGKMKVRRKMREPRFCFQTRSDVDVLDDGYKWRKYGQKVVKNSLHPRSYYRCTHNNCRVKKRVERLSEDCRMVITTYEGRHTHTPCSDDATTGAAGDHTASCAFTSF

The list shows a part of the results.

The target of this test is OsWRKY34 (Oryza sativa, UniProt Q0JBA9 1-250). Description: protein-binding microarray (RPBM); PBS, 2% BSA, 51.3 ng/ul salmon testes DNA, 50 uM zinc acetate, 200 nM TF, 25 C, 1 h; high values mean tight binding. The conditions noted are these: protein: recombinant; tags: N-terminal polyhistidine and DsRed monomer fusion (pET32a); label: CyDye5-dUTP incorporated in the synthesized complementary strand; 3' TTTTT single-stranded linker to array surface; dsDNA, one strand shown. An outline of the steps:
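The binding signal is fluorescence intensity per feature, in arbitrary units, read on an Axon 4000B scanner. Polyhistidine- and DsRed-tagged transcription factors (N-terminal fusions) from E. coli BL21-CodonPlus were purified on Ni–NTA and applied at 200 nM for 1 h at 25 °C to a double-stranded, BSA-blocked custom Agilent array in buffer with 50 µM zinc acetate.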
Take “CATCTCAGGACAAAGTCTTCTATATACGGCCAACTCTATCCGGAGTCACCTAGTGCAG”: the binding signal was 8040 fluorescence intensity (a.u.).
For the sequence “TTGTTACTGTTTGGTACTTCTATTTCCTGTCCACTTTCTTCGGAGTCACCTAGTGCAG”, the binding signal was 11700 fluorescence intensity (a.u.).
“GTAATCGCATCTGCCCATGGCGACCCCGGTCTCCTCCGCGCGGAGTCACCTAGTGCAG”: the binding signal is 8620 fluorescence intensity (a.u.).
As for “AGCACCTACGGCGGCGTCTTCTCCTACTGCCTACCGCCGACGGAGTCACCTAGTGCAG”, the binding signal was 9000 fluorescence intensity (a.u.).
Regarding “GCTTTCTTTCGATGCAACAATCCCCTTTTGTTGACTTACCCGGAGTCACCTAGTGCAG”, the binding signal was 8280 fluorescence intensity (a.u.).
Take “TCATCAACCGTGCCACGGTGCCGATCGATCAGCGACACAACGGAGTCACCTAGTGCAG”: the binding signal is 8720 fluorescence intensity (a.u.).
On to “CCAGCACGTTAGCCGATATTAATCATATCCCTGTTCCAACCGGAGTCACCTAGTGCAG”, for which the binding signal is 8740 fluorescence intensity (a.u.).
For “TTCCTCGTTCAAAATTCTTCTACTTCATATGGCCTGTTTACGGAGTCACCTAGTGCAG” the value was 10300 fluorescence intensity (a.u.); for “TATTTCCTCTGCATTAAGTCATCTCCTTTCCTTTTTTTTTCGGAGTCACCTAGTGCAG”, 10200 fluorescence intensity (a.u.).
Consider “TGTCGCATCTGTTTCCGCTCCTGCTCATAGCGCTGATACTCGGAGTCACCTAGTGCAG”, for which the binding signal is 8310 fluorescence intensity (a.u.).
For “AGAGCCGTAGACAAACGTCGATCGATCCTCGGTTCCAGCTCGGAGTCACCTAGTGCAG” the value was 8570 fluorescence intensity (a.u.); for “ATCTGTGTTGTTTTCGGTGTGTTTCTCCGGCTGGGGATGACGGAGTCACCTAGTGCAG”, 10200 fluorescence intensity (a.u.).
In the case of “ACAGTACGCTACTATTCATACGCTAAATTTGTCTTTTTTACGGAGTCACCTAGTGCAG”, the binding signal was 9830 fluorescence intensity (a.u.).
For the sequence “TTTATTTTGTTGTTCCTTTAGTTGTGGACTACTTGAGTCTCGGAGTCACCTAGTGCAG”, the binding signal was 8280 fluorescence intensity (a.u.).
“ATATCAGCTGCCCATTGTCCATATCTTCTTGGTTGTTGCCCGGAGTCACCTAGTGCAG”: the binding signal was 10300 fluorescence intensity (a.u.).
For “CATTTTCTTTCTTCTTCCTTATCCTTTTCTCTCTTTCTCACGGAGTCACCTAGTGCAG”, the binding signal was 9410 fluorescence intensity (a.u.).
As for “CCTCTCTTGATTGTGTTGTGCAGTTTGTTTGTGTAGTGGACGGAGTCACCTAGTGCAG”, the binding signal is 10300 fluorescence intensity (a.u.).
For “TTTCTTCCCACCATGGTCGCTTATGTAGCGACATCCCCGTCGGAGTCACCTAGTGCAG”, the binding signal was 8730 fluorescence intensity (a.u.).
As to “CGTAAATTTCACTCGCTGTTGCCCTATCCTTAGCCGTTGACGGAGTCACCTAGTGCAG”, the binding signal was 10500 fluorescence intensity (a.u.).
“GGCTGGTGCTGGAAGGGTGGGCGCTGCAATGGTACATGTGCGGAGTCACCTAGTGCAG”: the binding signal is 9350 fluorescence intensity (a.u.).
Then “ACGTTTTATTTTAGCCCGGCCTCTTTTTCTCCGTCACCCGCGGAGTCACCTAGTGCAG”, with 10100 fluorescence intensity (a.u.).
Take “GTACCAGGTGGCCCGATTCTCTCGTACCAATTTCCACCAGCGGAGTCACCTAGTGCAG”: the binding signal was 8400 fluorescence intensity (a.u.).
With “CTGGCCATCTCTTCCGCGCCCAGATGAAGCAGTTACACACCGGAGTCACCTAGTGCAG”, the binding signal is 8780 fluorescence intensity (a.u.).
As to “TTTAACGTCACCTTTCTCGTTTGCTGCTCATTTTGCTTACCGGAGTCACCTAGTGCAG”, the binding signal was 13500 fluorescence intensity (a.u.).
On to “AACCTAAAAAAACCACCACCACCCACGCAACACAAACACACGGAGTCACCTAGTGCAG”, for which the binding signal was 8430 fluorescence intensity (a.u.).
Then “GCTCTATCCAATCTCCCACATCAGCCACACCATCAAAAGCCGGAGTCACCTAGTGCAG”, with 8920 fluorescence intensity (a.u.); and “GCCGCCTCGCTTCCACTTCCTCTCCTCTCCCCTCGACACACGGAGTCACCTAGTGCAG”, with 8090 fluorescence intensity (a.u.); and “TTTGCTTTGCGCACGGTGATTTCGCCCTTGTCCCGGTCGACGGAGTCACCTAGTGCAG”, with 8730 fluorescence intensity (a.u.).
Then “GATCTCGCCTGCCCCTCCGCACCAGCCCTCGCGACTCATGCGGAGTCACCTAGTGCAG”, with 8420 fluorescence intensity (a.u.); and “TACTGATTCTTTTTTCAAATTCCAGACACACATAGCCACTCGGAGTCACCTAGTGCAG”, with 8910 fluorescence intensity (a.u.); and “GTTCTCCTATACAACTCCACTTGTCATTAGTCATGCACTGCGGAGTCACCTAGTGCAG”, with 9940 fluorescence intensity (a.u.).
For “TTGTACTCTTACAACCGCCGTCTTCATTCCAGTAAGCTATCGGAGTCACCTAGTGCAG” the value was 14000 fluorescence intensity (a.u.).
With “TAAACCCACGGCGATCTCCTCCTATATTTCCTCCGGTCGCCGGAGTCACCTAGTGCAG”, the binding signal is 8520 fluorescence intensity (a.u.).
Take “GTTTAATGGTAGTGCATGGGTTGTGATTATTTCCTACCATCGGAGTCACCTAGTGCAG”: the binding signal is 8730 fluorescence intensity (a.u.).
As to “TGCTTATGGACTACTTTTACACTACATTGTGGATGCCCTACGGAGTCACCTAGTGCAG”, the binding signal was 10100 fluorescence intensity (a.u.).
Turning to “TAACCCTAGCTTGCTGTCGCCGCCGCCGCCGTCCATCGCCCGGAGTCACCTAGTGCAG”, the binding signal was 11300 fluorescence intensity (a.u.).
In the case of “ACGATACTATTAGTCCCCGCCATTATCTAGCCCATGCGAACGGAGTCACCTAGTGCAG”, the binding signal is 8640 fluorescence intensity (a.u.).
In the case of “TAATCTAACCCCATGTTAATGCTAGTAGCACTTTGATTTGCGGAGTCACCTAGTGCAG”, the binding signal was 10800 fluorescence intensity (a.u.).
Regarding “TACAACTTTGTTGTTGTTGACTTTTTCAGTTGAAATTATTCGGAGTCACCTAGTGCAG”, the binding signal is 10800 fluorescence intensity (a.u.).
For “TTTTAATAGTTGACTCTCCCATGTTCTCTCAAACGTAAGCCGGAGTCACCTAGTGCAG”, the binding signal was 9240 fluorescence intensity (a.u.).
“CATCCAACCATCACACACAGTTAGCATATCAGTAGTCGTTCGGAGTCACCTAGTGCAG”: the binding signal is 8210 fluorescence intensity (a.u.).
In the case of “CTTTCGCCTCAGAGTCCCATCCAACCACCGCGTCCACGAACGGAGTCACCTAGTGCAG”, the binding signal was 9920 fluorescence intensity (a.u.).
